Measured values as given in paper PMC4557272.
Results are given in words; binding and its absence hold for the method and conditions named. A result given as binding can be weak or reduced; the word gives no strength. For some of these results: Binding seen in cells or lysates may run through a third protein. For some of these results: Where a sequence is shown, tags or fusion partners need not be part of it.

T1: SAPK8, yeast two-hybrid bait in pGBKT7 (rice (Oryza sativa)) (UniProt Q7Y0B9)
T1 sequence: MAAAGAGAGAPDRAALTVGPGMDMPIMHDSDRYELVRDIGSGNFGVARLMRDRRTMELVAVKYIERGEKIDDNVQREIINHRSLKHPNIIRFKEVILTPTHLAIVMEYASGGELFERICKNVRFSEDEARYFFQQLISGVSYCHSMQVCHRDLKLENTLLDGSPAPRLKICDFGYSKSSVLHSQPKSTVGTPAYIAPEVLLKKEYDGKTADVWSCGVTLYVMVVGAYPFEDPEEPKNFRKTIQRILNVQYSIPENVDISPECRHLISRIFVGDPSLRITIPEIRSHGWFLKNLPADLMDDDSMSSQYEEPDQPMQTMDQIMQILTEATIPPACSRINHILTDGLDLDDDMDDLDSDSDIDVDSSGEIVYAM

T2: SAPK10, yeast two-hybrid bait in pGBKT7 (rice (Oryza sativa)) (UniProt Q75H77)
T2 sequence: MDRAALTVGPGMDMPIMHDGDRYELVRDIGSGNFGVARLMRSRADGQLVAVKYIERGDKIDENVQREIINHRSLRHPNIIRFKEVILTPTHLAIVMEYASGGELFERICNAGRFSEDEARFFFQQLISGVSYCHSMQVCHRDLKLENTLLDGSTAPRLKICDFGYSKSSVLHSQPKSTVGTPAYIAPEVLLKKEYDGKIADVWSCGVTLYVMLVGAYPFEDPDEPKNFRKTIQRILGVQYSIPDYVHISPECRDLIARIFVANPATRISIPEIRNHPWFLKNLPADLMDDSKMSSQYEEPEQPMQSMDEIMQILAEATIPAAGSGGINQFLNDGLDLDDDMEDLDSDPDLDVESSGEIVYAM

B1: SAPK8, BiFC fusion in pSPYCE(M) (eYCE) (enzyme, UniProt Q7Y0B9 1-371)
chain: T1 sequence
B2: SAPK10, BiFC fusion in pSPYCE(M) (eYCE) (enzyme, UniProt Q75H77 1-362)
chain: T2 sequence

Legend:
[1] = molecular target: T1, SAPK8, yeast two-hybrid bait in pGBKT7 (rice (Oryza sativa)); test: two-hybrid; TE as prey in pGADT7, SAPKs as bait in pGBKT7, yeast strain AH109
[2] = molecular target: T2, SAPK10, yeast two-hybrid bait in pGBKT7 (rice (Oryza sativa)); test: as above
[3] = molecular target: Tiller Enhancer (TE), BiFC fusion TE-eYNE (rice (Oryza sativa)); test: split reporter; BiFC (eYFP halves) in N. benthamiana leaf epidermis cells, co-infiltrated with p19 and an ER marker; observed 48-72 h after infiltration by confocal microscopy

Molecule	binding [1]	binding [2]	binding [3]
TE, yeast two-hybrid prey in pGADT7 (rice (Oryza sativa))	binds	binds	
B1			binds
B2			binds
